Binding data for one molecule are collected here from article doi:10.1101/2025.11.17.688253.

Protein sequences, listed by entry. Tags and fused reporters are not part of them. Residues count along the entry.
UniProt P11688, residues 45-1053: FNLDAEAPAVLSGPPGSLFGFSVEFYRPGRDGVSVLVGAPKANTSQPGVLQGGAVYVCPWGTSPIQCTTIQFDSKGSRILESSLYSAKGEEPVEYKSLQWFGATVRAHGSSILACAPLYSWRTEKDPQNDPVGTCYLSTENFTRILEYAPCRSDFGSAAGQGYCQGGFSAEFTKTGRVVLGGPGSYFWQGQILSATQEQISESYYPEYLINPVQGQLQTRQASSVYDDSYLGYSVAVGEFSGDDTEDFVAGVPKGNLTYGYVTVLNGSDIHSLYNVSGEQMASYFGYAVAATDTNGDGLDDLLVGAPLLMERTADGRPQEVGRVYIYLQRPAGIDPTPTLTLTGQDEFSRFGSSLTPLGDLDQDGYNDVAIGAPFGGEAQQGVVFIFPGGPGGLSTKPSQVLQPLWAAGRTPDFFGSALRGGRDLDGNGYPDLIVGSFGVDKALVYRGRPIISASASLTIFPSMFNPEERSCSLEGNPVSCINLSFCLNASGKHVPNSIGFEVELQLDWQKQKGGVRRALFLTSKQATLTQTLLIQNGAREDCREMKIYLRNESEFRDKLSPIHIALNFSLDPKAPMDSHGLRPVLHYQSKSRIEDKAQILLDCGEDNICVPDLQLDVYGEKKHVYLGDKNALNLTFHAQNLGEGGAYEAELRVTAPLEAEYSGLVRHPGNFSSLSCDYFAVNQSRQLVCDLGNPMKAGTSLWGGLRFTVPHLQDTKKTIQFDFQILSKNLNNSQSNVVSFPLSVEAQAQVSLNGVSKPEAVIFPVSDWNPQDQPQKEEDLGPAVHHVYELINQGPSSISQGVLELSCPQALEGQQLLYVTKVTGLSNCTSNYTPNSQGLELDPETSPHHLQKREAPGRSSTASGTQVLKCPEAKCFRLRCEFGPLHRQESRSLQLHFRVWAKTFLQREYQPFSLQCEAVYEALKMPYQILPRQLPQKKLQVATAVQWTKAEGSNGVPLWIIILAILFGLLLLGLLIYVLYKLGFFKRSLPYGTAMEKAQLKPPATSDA

No constants are given. Whether binding was seen depends on the method and setting. In cells and extracts the contact can be indirect. Some results given as binding are weak or reduced against the parent protein; the word gives no strength.

The target of test [1] is T1, Integrin αv (mouse (endogenous in C2C12)) (UniProt P43406).
T1 sequence: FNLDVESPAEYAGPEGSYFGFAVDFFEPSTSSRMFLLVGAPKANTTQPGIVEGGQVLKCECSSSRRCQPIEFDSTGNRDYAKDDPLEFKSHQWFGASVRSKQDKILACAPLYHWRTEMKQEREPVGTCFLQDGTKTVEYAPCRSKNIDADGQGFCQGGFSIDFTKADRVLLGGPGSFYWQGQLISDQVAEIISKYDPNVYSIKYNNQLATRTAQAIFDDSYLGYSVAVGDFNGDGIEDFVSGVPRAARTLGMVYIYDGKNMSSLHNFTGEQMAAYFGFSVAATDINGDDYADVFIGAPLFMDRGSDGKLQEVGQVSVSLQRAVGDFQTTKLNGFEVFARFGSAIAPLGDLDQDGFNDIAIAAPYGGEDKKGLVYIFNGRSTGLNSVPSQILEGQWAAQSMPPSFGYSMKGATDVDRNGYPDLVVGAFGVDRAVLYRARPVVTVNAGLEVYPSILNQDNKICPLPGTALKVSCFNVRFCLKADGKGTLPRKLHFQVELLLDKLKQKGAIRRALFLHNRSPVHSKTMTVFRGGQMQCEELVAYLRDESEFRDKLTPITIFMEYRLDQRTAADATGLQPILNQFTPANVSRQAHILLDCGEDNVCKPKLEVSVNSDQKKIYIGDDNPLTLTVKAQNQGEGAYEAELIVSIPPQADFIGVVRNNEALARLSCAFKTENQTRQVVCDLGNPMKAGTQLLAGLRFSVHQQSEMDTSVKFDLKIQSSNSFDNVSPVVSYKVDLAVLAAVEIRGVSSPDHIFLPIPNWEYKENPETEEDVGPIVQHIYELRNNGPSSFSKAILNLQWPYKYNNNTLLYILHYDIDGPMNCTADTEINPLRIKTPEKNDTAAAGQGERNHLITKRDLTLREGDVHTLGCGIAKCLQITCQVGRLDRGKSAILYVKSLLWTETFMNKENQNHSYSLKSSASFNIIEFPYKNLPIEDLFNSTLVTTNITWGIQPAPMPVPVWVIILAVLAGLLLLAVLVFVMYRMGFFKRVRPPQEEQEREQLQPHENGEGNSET
Briefly: proximity ligation.

Test [2] addresses Integrin α5 (mouse (endogenous in C2C12)) (UniProt P11688). Briefly: proximity ligation.

B1: NaBC1 borate transporter (SLC4A11) (protein, UniProt A2AJN7 1-862)
chain: MSQNEHCQDSGEYFSAGTQGYFKNNMEDNLEVREDSLGDEVFDTVNSSIVSGESIRFFVNVNLEVQPSKSDLEAATGGCVLLHTSRKYLKLKNFEEEVRAHRDLDGFLAQASIILNETATSLDDVLRTMLNRFALDPNHAEPDCDLDLLMAKLFTDAGAPMESKVHLLSDTIQGVTATVRGVQYEQSWLCIICTMKTLQKRHVCISRLVRPQNWGENSCEVRFVILVLAPPKMKSTKTAMEVARTFATMFSDITFRQKLLKTRTEEEFKEALVHQRQLLTMMMPRAAGHSMSSLHTHRHPQPPKCKDFFPFGKGIWMDIMRRFPVYPMDFTDGIIGKSKSVGKYVTTTLFLYFACLLPTIAFGSLNDENTNGAIDVQKTIAGQSIGGLLYALFSGQPLVILLTTAPLAIYTQVIRVICDDYNLDFNAFYAWTGLWNSFFLALYAFLNLSLLMNLFKRSTEEIIALFISITFVLDAVKGMVKIFGKYYYGHHYHTKRTSSLVSLLGIGRSPNSSLHTALNASLLASPVEMATTSSPGSTHSGQATAVLSLLIMLGTLWLGYTLYQFKKSPYLHPCVRETLSDCALPIAVLSFSLIGSYGFQEIEMSKFRYNPSESLFEVAQIHSLSFKAIGSAMGLGFLLSLLFFIEQNLVAALVNAPENRLVKGTAYHWDLLLLAIINTGLSLFGLPWIHAAYPHSPLHVRALALVEERVENGHIYETIVDVKETRLTALGASVLVGLSLLLLPFPLQWIPKPVLYGLFLYIALTSLDGNQLFSRVALLLKEQTSYPPTHYIRRVPQRKIHYFTGLQILQLLLLCAFGMSSLPYMKMVFPLIMIAMIPIRYNLLPRIIEAKYLDVMDAEHRP
With B1, the binding entry in test [1] and in test [2] was “binds” throughout.
